Laboratory results: PubChem BioAssay AID1508597 (Cure First, 2020)
Shown is one part, drawn at random, of about 2,100 reagents. 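Calls flag viability under 80% in either arm, not effects specific to rucaparib; the reference for percent is not stated.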 Not given: the 100% reference.

Screen: 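Knock-downs altering ovarian cancer cell survival with or without PARP inhibitor rucaparib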 (primary screen)
Cell system: human ovarian carcinoma lines grown from tumours: OCI-P5x (papillary serous) and OCI-C5x (clear cell)
Reagent: siRNA pool against human genes, 1.25 pmol siRNA per well
Timing: 72 h or 96 h, depending on the cell culture
Treatment: rucaparib 20 µM (about IC30) or vehicle, present until read-out
Measured: 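Luminescent ATP-based viability assay read 72 or 96 h after transfection, depending on culture, given as normalised percent viability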
Direction: viability, normalised: higher = more viable cells remaining
Hit rule: 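Active when normalised viability falls below 80 percent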
Calls: active = viability under 80%; inactive = viability 80% or more

gene symbol,rucaparib or vehicle,cell line,technical replicate,"viability, normalised (%)",Call
SLC2A9,Rucaparib,OCI-C5x (clear cell),1,39,active
SLC2A9,Rucaparib,OCI-C5x (clear cell),2,39.1,active
SLC2A9,Rucaparib,OCI-C5x (clear cell),3,33.2,active
SLC2A9,Rucaparib,OCI-P5x (serous),1,51.9,active
SLC2A9,Rucaparib,OCI-P5x (serous),2,48.5,active
SLC2A9,Rucaparib,OCI-P5x (serous),3,49.9,active
SLC2A9,Vehicle,OCI-C5x (clear cell),1,30.2,active
SLC2A9,Vehicle,OCI-C5x (clear cell),2,37.6,active
SLC2A9,Vehicle,OCI-C5x (clear cell),3,36.1,active
SLC2A9,Vehicle,OCI-P5x (serous),1,46.5,active
SLC2A9,Vehicle,OCI-P5x (serous),2,58.9,active
SLC2A9,Vehicle,OCI-P5x (serous),3,65.5,active
UNG,Rucaparib,OCI-C5x (clear cell),1,57.3,active
UNG,Rucaparib,OCI-C5x (clear cell),2,60.5,active
UNG,Rucaparib,OCI-C5x (clear cell),3,58.2,active
UNG,Rucaparib,OCI-P5x (serous),1,110,inactive
UNG,Rucaparib,OCI-P5x (serous),2,105,inactive
UNG,Rucaparib,OCI-P5x (serous),3,91.7,inactive
UNG,Vehicle,OCI-C5x (clear cell),1,105,inactive
UNG,Vehicle,OCI-C5x (clear cell),2,63.9,active
UNG,Vehicle,OCI-C5x (clear cell),3,60.7,active
UNG,Vehicle,OCI-P5x (serous),1,91.4,inactive
UNG,Vehicle,OCI-P5x (serous),2,97,inactive
UNG,Vehicle,OCI-P5x (serous),3,85.5,inactive

The list goes on; the last 5 above are carried over.
gene symbol,rucaparib or vehicle,cell line,technical replicate,"viability, normalised (%)",Call
UNG,Vehicle,OCI-C5x (clear cell),2,63.9,active
UNG,Vehicle,OCI-C5x (clear cell),3,60.7,active
UNG,Vehicle,OCI-P5x (serous),1,91.4,inactive
UNG,Vehicle,OCI-P5x (serous),2,97,inactive
UNG,Vehicle,OCI-P5x (serous),3,85.5,inactive
PKD2L1,Rucaparib,OCI-C5x (clear cell),1,62.7,active
PKD2L1,Rucaparib,OCI-C5x (clear cell),2,54.8,active
PKD2L1,Rucaparib,OCI-C5x (clear cell),3,35.7,active
PKD2L1,Rucaparib,OCI-P5x (serous),1,65.3,active
PKD2L1,Rucaparib,OCI-P5x (serous),2,60.9,active
PKD2L1,Rucaparib,OCI-P5x (serous),3,48.1,active
PKD2L1,Vehicle,OCI-C5x (clear cell),1,49.8,active
PKD2L1,Vehicle,OCI-C5x (clear cell),2,54.5,active
PKD2L1,Vehicle,OCI-C5x (clear cell),3,34,active
PKD2L1,Vehicle,OCI-P5x (serous),1,59.7,active
PKD2L1,Vehicle,OCI-P5x (serous),2,69.9,active
PKD2L1,Vehicle,OCI-P5x (serous),3,61.4,active
CDH5,Rucaparib,OCI-C5x (clear cell),1,51.6,active
CDH5,Rucaparib,OCI-C5x (clear cell),2,74.4,active
CDH5,Rucaparib,OCI-C5x (clear cell),3,50.7,active
CDH5,Rucaparib,OCI-P5x (serous),1,66,active
CDH5,Rucaparib,OCI-P5x (serous),2,77.6,active
CDH5,Rucaparib,OCI-P5x (serous),3,77.7,active
CDH5,Vehicle,OCI-C5x (clear cell),1,59.3,active
CDH5,Vehicle,OCI-C5x (clear cell),2,57.4,active
CDH5,Vehicle,OCI-C5x (clear cell),3,53.1,active
CDH5,Vehicle,OCI-P5x (serous),1,65,active
CDH5,Vehicle,OCI-P5x (serous),2,69.7,active
CDH5,Vehicle,OCI-P5x (serous),3,75.3,active
